# Test results: publication PMC5996148
# The list shows a part of the results.
# Key:
# Test in all cases: protein microarray (ProtoArray v5.0), streptavidin-Alexa Fluor 647
# Details in all cases: 3'-biotin; 20 mM Tris (pH 7.5), 5 mM MgCl2, 100 mM KCl, 0.1% Tween-20, A/T-rich and random oligonucleotide blockers; temperature not stated; high values mean tight binding
# [1] = test system: cDNA clone IMAGE:4476475, complete cds (human)
# [2] = test system: cDNA clone IMAGE:4827883 (human)
# [3] = test system: cDNA clone IMAGE:5263629 (human)
# [4] = test system: cDNA clone MGC:110973 IMAGE:6156156 (human)
# [5] = test system: cDNA clone MGC:120780 IMAGE:7939590 (human)
# [6] = test system: cDNA clone MGC:12166 IMAGE:3828551 (human)
# [7] = test system: cDNA clone MGC:12418 IMAGE:3934658, complete cds (human)
# [8] = test system: cDNA clone MGC:15478 IMAGE:2967661, complete cds (human)
# [9] = test system: cDNA clone MGC:163527 IMAGE:40146686 (human)
# [10] = test system: cDNA clone MGC:16743 IMAGE:4130428 (human)
# [11] = test system: cDNA clone MGC:17055 IMAGE:4338834 (human)
# [12] = test system: cDNA clone MGC:21889 IMAGE:4345550, complete cds (human)
# [13] = test system: cDNA clone MGC:23693 IMAGE:4767650 (human)
# [14] = test system: cDNA clone MGC:25008 IMAGE:4453355, complete cds (human)
# [15] = test system: cDNA clone MGC:25024 IMAGE:4470095 (human)
# [16] = test system: cDNA clone MGC:26894 IMAGE:4828475 (human)
# [17] = test system: cDNA clone MGC:31944 IMAGE:4878869, complete cds (human)
# [18] = test system: cDNA clone MGC:3195 IMAGE:3357276 (human)
# [19] = test system: cDNA clone MGC:32654 IMAGE:4701898, complete cds (human)
# [20] = test system: cDNA clone MGC:34832 IMAGE:5203730 (human)
sequence,measurement,setting,value
GGGAGGCTGAGGCAGG [G4-1 biotinylated (PQS2)],binding signal,[1],-0.293 z-score
same,binding signal,[2],-0.314 z-score
same,binding signal,[3],-0.36 z-score
same,binding signal,[4],-0.322 z-score
same,binding signal,[5],-0.327 z-score
same,binding signal,[6],-0.324 z-score
same,binding signal,[7],-0.312 z-score
same,binding signal,[8],-0.356 z-score
same,binding signal,[9],-0.298 z-score
same,binding signal,[10],-0.35 z-score
same,binding signal,[11],-0.349 z-score
same,binding signal,[12],-0.285 z-score
same,binding signal,[13],-0.341 z-score
same,binding signal,[14],-0.336 z-score
same,binding signal,[15],-0.282 z-score
same,binding signal,[16],-0.258 z-score
same,binding signal,[17],-0.291 z-score
same,binding signal,[18],-0.281 z-score
same,binding signal,[19],-0.358 z-score
same,binding signal,[20],-0.33 z-score

# 2 entries drawn at random from those above, as already listed:
sequence,measurement,setting,value
GGGAGGCTGAGGCAGG [G4-1 biotinylated (PQS2)],binding signal,[20],-0.33 z-score
same,binding signal,[7],-0.312 z-score
